Where a name gives a salt, the structure may show the parent alone. The list shows a part of the results. Most values come without repeats; read them as rough.
Columns and labels:
Saos-2 = test: cell viability (CCK-8) relative to DMSO control (% of control); higher = less cytotoxic; details: 10 µM; 48 h
U2OS = test: as above; details: 10 µM; 48 h

| SMILES | cell viability (Saos-2) | cell viability (U2OS) |
| --- | --- | --- |
| CN(C)C(=O)C(CCN1CCC(O)(c2ccc(Cl)cc2)CC1)(c1ccccc1)c1ccccc1 [Loperamide . Hydrochloride] | 58.5 | 115 |
| CCOC(=O)[C@H](CCc1ccccc1)N[C@@H](C)C(=O)N1[C@H](C(=O)O)C[C@H]2CCCC[C@@H]21 [Trandolapril] | 108 | 85.5 |
| CC(=O)OCC(CCn1cnc2cnc(N)nc21)COC(C)=O [Famciclovir] | 67.4 | 103 |
| C[C@@H](O)[C@H]1C(=O)N2C(C(=O)O)=C(SCCNC=N)C[C@H]12 [Imipenem] | 58.1 | 124 |
| CC1=C(C(=O)O)N2C(=O)[C@@H](NC(=O)[C@H](N)c3ccc(O)cc3)[C@H]2SC1 [Cefadroxil Monohydrate] | 115 | 55.3 |
| Cc1ccc(C)c(OCCCC(C)(C)C(=O)O)c1 [Gemfibrozil] | 72.7 | 98.3 |
| C#CCN[C@@H]1CCc2ccccc21 [Rasagiline Mesylate] | 108 | 95.6 |
| CCCN(CCC)CCc1cccc2c1CC(=O)N2 [Ropinirole·HCl] | 106 | 103 |
| Cc1nc2n(c(=O)c1CCN1CCC(c3noc4cc(F)ccc34)CC1)CCCC2O (stereo not given) [Paliperidone] | 107 | 106 |
| CN(Cc1ccc(C(C)(C)C)cc1)Cc1cccc2ccccc12 [Butenafine·HCl] | 58.3 | 113 |
| CCC(=O)O[C@]1(C(=O)CCl)[C@@H](C)C[C@H]2[C@@H]3C[C@H](F)C4=CC(=O)C=C[C@]4(C)[C@@]3(F)[C@@H](O)C[C@@]21C [Halobetasol Propionate] | 118 | 108 |
| CCN(CC)C(=S)SSC(=S)N(CC)CC [Disulfiram] | 35 | 94.1 |
| CCOC(=O)c1ncn2c1CN(C)C(=O)c1cc(F)ccc1-2 [Flumazenil] | 56.3 | 110 |
| OCc1cc(C(O)CNCCCCCCOCCCCc2ccccc2)ccc1O (stereo not given) [Salmeterol] | 60.2 | 123 |
| CCOC(=O)[C@H](CCc1ccccc1)N[C@H]1CCc2ccccc2N(CC(=O)O)C1=O [Benazepril·HCl] | 109 | 102 |
| CC(C)Cc1ccc(C(C)C(=O)O)cc1 (stereo not given) [Ibuprofen] | 55.5 | 103 |
| Cc1ccc(-c2cc(C(F)(F)F)nn2-c2ccc(S(N)(=O)=O)cc2)cc1 [Celecoxib] | 64.4 | 103 |
| CN1CCN(C2=Nc3cc(Cl)ccc3Nc3ccccc32)CC1 [Clozapine] | 63.4 | 110 |
| CN(C)[C@@H]1C(O)=C(C(N)=O)C(=O)[C@@]2(O)C(O)=C3C(=O)c4c(O)ccc(Cl)c4[C@@H](O)[C@H]3C[C@@H]12 [Demeclocycline·HCl] | 108 | 97.3 |
| COC(c1ccccc1)(c1ccccc1)[C@H](Oc1nc(C)cc(C)n1)C(=O)O [Ambrisentan] | 113 | 95 |
| NC12CC3CC(CC(C3)C1)C2 [Amantadine·HCl] | 61.7 | 116 |
| CN(C)CCOC(c1ccc(Cl)cc1)c1ccccn1 (stereo not given) [Carbinoxamine Maleate] | 116 | 73.9 |
| COC(=O)[C@@H]1CC2=CC(=O)CC[C@]2(C)[C@@]23O[C@@H]2C[C@@]2(C)[C@@H](CC[C@@]24CCC(=O)O4)[C@H]13 [Eplerenone] | 73.5 | 38.9 |
| CC[C@]1(O)C[C@@H]2CN(CCc3c([nH]c4ccccc34)[C@@](C(=O)OC)(c3cc4c(cc3OC)N(C)[C@H]3[C@@](O)(C(=O)OC)[C@H](OC(C)=O)[C@]5(CC)C=CCN6CC[C@]43[C@@H]65)C2)C1 [Vinblastine . sulfate] | 33.1 | 60.1 |
| O=C(N[C@H](CO)[C@H](O)c1ccc([N+](=O)[O-])cc1)C(Cl)Cl [Chloramphenicol] | 72.1 | 110 |
| CCN(CC)CCOC(=O)C1(C2CCCCC2)CCCCC1 [Dicyclomine·HCl] | 114 | 91.2 |
| OCCN(CCO)c1nc(N2CCCCC2)c2nc(N(CCO)CCO)nc(N3CCCCC3)c2n1 [Dipyridamole] | 52.9 | 105 |
| C[N+]1(C)[C@@H]2C[C@@H](OC(=O)C(O)(c3cccs3)c3cccs3)C[C@H]1[C@@H]1O[C@@H]12 [Tiotropium Bromide] | 63 | 99.8 |
| O=C1CN2Cc3c(ccc(Cl)c3Cl)N=C2N1 [Anagrelide] | 57.3 | 108 |
| CCCCC[C@H](O)/C=C/[C@H]1[C@H](O)CC(=O)[C@@H]1CCCCCCC(=O)O [Prostaglandin E1] | 64.8 | 101 |

Taken from above:
cell viability (U2OS), `C[N+]1(C)[C@@H]2C[C@@H](OC(=O)C(O)(c3cccs3)c3cccs3)C[C@H]1[C@@H]1O[C@@H]12` [Tiotropium Bromide] is entered as 99.8
cell viability (U2OS), `Cc1nc2n(c(=O)c1CCN1CCC(c3noc4cc(F)ccc34)CC1)CCCC2O` (stereo not given) [Paliperidone] is entered as 106

— the supplement of paper PMC9433722
